From patent US20230279141A1 (MINERVA BIOTECHNOLOGIES, published 2023)
No constants are given. Whether binding was seen depends on the method and setting. Some binding calls cover weakened binding; strength is not graded here.

The chains behind the UniProt entries cited, without tags or fusion partners. Where a name states a change or a piece, a line headed by the entry shows the natural chain unless it says otherwise. Residues count along the entry.
UniProt P15941, residues 1110-1255: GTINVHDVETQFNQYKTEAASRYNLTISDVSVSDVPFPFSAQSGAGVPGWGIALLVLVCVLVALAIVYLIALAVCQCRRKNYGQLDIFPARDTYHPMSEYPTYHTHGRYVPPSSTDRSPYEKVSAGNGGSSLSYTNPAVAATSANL
UniProt Q9Y5B8: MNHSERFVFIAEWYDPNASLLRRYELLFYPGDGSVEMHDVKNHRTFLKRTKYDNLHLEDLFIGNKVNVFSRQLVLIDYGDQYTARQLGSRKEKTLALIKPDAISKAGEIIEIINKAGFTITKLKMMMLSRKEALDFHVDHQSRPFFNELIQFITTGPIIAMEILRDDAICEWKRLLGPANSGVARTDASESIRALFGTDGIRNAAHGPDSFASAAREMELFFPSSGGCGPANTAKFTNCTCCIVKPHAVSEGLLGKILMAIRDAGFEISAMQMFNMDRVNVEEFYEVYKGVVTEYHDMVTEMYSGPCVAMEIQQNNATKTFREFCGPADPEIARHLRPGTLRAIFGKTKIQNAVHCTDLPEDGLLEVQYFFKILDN

Experiments:
[1] = target: MUC1* growth factor receptor (human) (UniProt P15941); test: pull-down assays, ELISAs and nanoparticle binding experiments
[2] = target: MUC1* growth factor receptor (human) (UniProt P15941); test: ELISA of FIG. 1 is cited

binding [1]: binds
binding [2]: binds
Substance: recombinant human NME7-AB (from UniProt Q9Y5B8 92-376) (ligand)
